This passage reports binding results from paper PMC5028754.

These are yes or no findings as the source states them, for the method shown. Where a sequence is shown, tags or fusion partners need not be part of it.

T1: Ddi1 UBL with an N-terminal His-tag (residues 1-80) (S. cerevisiae) (UniProt P40087)
T1 sequence (chain, 15N-labelled): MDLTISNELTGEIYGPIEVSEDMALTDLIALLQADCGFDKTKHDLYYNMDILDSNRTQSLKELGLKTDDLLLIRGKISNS

B1: Yeast Ufo1 UIM1-4 (residues 512-668) (domain or fragment, UniProt Q04511 512-668)
chain: GDTDEENDIQLRIALLESQEAQARNQAEAGEPVGDDEDEQLRRALEESQLIYETQTNSSANHGNNTNDEIDEDDEEFLRAIRQSRVEDERRRHLRNHTTGRRNGPLSDDNFATYGAAESSERTSTENTIGSSVGVDASNNVDEDLQLAIALSLSEIN
B2: Ddi1 86-325 (helical domains + protease) (domain or fragment, UniProt P40087 86-325)
chain: ATLSDEAFIEQFRQELLNNQMLRSQLILQIPGLNDLVNDPLLFRERLGPLILQRRYGGYNTAMNPFGIPQDEYTRLMANPDDPDNKKRIAELLDQQAIDEQLRNAIEYTPEMFTQVPMLYINIEINNYPVKAFVDTGAQTTIMSTRLAKKTGLSRMIDKRFIGEARGVGTGKIIGRIHQAQVKIETQYIPCSFTVLDTDIDVLIGLDMLKRHLACVDLKENVLRIAEVETSFLSEAEIPK

This experiment addresses T1, Ddi1 UBL with an N-terminal His-tag (residues 1-80) (S. cerevisiae). The experiment in a line: NMR titration; 0.2 mM 15N-labeled Ddi1 UBL, 2D 15N/1H HSQC, two-fold molar excess (0.4 mM) of ligand added; 50 mM sodium phosphate, pH 7.4, 0.5% glycerol, 25 °C; minimal shift approach; both purified.
Consider GDTDEENDIQLRIALLESQEAQARNQAE (peptide, UniProt Q04511 512-539) [Yeast Ufo1 UIM1 (512-539)], for which the binding entry is “no binding (tested: 0.4 mM (two-fold molar excess))”.

EPVGDDEDEQLRRALEESQLIYETQTNS (peptide, UniProt Q04511 542-569) [Yeast Ufo1 UIM2 (542-569)]: the binding entry is recorded as “no binding (tested: 0.4 mM (two-fold molar excess))”. Then TNDEIDEDDEEFLRAIRQSRVEDERRRHLRNH (peptide, UniProt Q04511 577-608) [Yeast Ufo1 UIM3 (577-608)], with “no binding”; and B1, with “no binding (tested: 0.4 mM (two-fold molar excess))”. As for RTFPEQTIKQLMDLGFPRDAVVKALKQTNGNAEFAASLLFQ (domain or fragment, UniProt P40087 388-428) [Ddi1 388-428 (UBA)], the binding entry is “no binding (tested: 0.4 mM (two-fold molar excess))”. In the case of NVDEDLQLAIALSLSEIN (peptide, UniProt Q04511 651-668) [Ufo1 UIM4 (651-668)], the binding entry is listed as “no binding (tested: 0.4 mM (two-fold molar excess))”. Consider B2, for which the binding entry is “no binding (tested: 0.4 mM (two-fold molar excess))”.
